SMILES strings stand for the structures. Counter-ions that a name gives are not always drawn. Some of the results follow. Plates or batches differ in their baseline, so values are only roughly comparable.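 HCT116-GFP is a human colorectal cancer cell line that carries a KRAS mutation, is microsatellite-unstable and always makes green fluorescent protein; the immune cells came from healthy donors. Live-cell imaging of the green signal stood in for cancer cell survival, and activated immune cells alone cut survival to about half.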

This test has as its system HCT116-GFP. As to the kind of experiment: HCT116-GFP viability (GFP intensity) relative to untreated HCT116-GFP monoculture control, co-culture with activated PBMCs; higher = less cancer cell killing. To be noted: culture: co-culture with anti-CD3/IL2 activated PBMCs 1:1; 10 µM; 72 h.
For `CC(=O)N(CC(C)C(=O)O)c1c(I)cc(I)c(N)c1I` (stereo unspecified) [Iocetamic acid], the HCT116-GFP viability is 78.7%.

On to `CN(C)[C@@H]1C(O)=C(C(N)=O)C(=O)[C@@]2(O)C(O)=C3C(=O)c4c(O)ccc(Cl)c4[C@@](C)(O)[C@H]3C[C@@H]12` [Chlortetracycline hydrochloride], for which the HCT116-GFP viability came out at 35.1%.

The compound `Cc1cccc(CN2CCN(C(c3ccccc3)c3ccc(Cl)cc3)CC2)c1` (stereo unspecified) [Meclozine dihydrochloride] yielded an HCT116-GFP viability of 65.6%.

`O=C(O)CCC(=O)Nc1ccc(S(=O)(=O)Nc2nccs2)cc1` [Succinylsulfathiazole] had an HCT116-GFP viability of 68.3%.

Turning to `COc1cnc(NS(=O)(=O)c2ccc(N)cc2)nc1` [Sulfameter], the HCT116-GFP viability amounted to 74%.

With `CCCCC(C)(O)C/C=C/[C@H]1[C@H](O)CC(=O)[C@@H]1CCCCCCC(=O)OC` (mixture of isomers) [Misoprostol], the HCT116-GFP viability was 38.9%.

Compound `CNCCC(Oc1ccccc1OC)c1ccccc1` (stereo unspecified) [Nisoxetine hydrochloride] displayed an HCT116-GFP viability of 83.4%.

The compound `COc1ccccc1O` [Guaiacol] yielded an HCT116-GFP viability of 26.2%.

Compound `CCOC(=O)C1=C[C@]2(CC)CCCN3CCc4c(n1c1ccccc41)[C@@H]32` [Vinpocetine] showed an HCT116-GFP viability of 76.1%.

Compound `COc1ccc(-c2cc(=O)c3c(O)cc(O[C@@H]4O[C@H](CO[C@@H]5O[C@@H](C)[C@H](O)[C@@H](O)[C@H]5O)[C@@H](O)[C@H](O)[C@H]4O)cc3o2)cc1O` [Diosmin] registered an HCT116-GFP viability of 56.9%.

As to `CCCCCCCN(CC)CCCC(O)c1ccc(NS(C)(=O)=O)cc1` (stereo unspecified) [Ibutilide fumarate], the HCT116-GFP viability came out at 79%.

Take `c1ccc2[nH]c(-c3cscn3)nc2c1` [Tiabendazole]: the HCT116-GFP viability is 48.1%.

Compound `CC1CS(=O)(=O)CCN1/N=C/c1ccc([N+](=O)[O-])o1` (stereo unspecified) [Nifurtimox] had an HCT116-GFP viability of 25.4%.

On to `CN1CC2c3ccccc3Oc3ccc(Cl)cc3C2C1` (stereo unspecified) [Asenapine maleate], for which the HCT116-GFP viability was 63.6%.

`OCc1cc(C(O)CNCCCCCCOCCCCc2ccccc2)ccc1O` (stereo unspecified) [Salmeterol]: the HCT116-GFP viability was 80.5%.

Compound `O=C(O)Cc1sc(-c2ccccc2)nc1-c1ccc(Cl)cc1` [Fentiazac] had an HCT116-GFP viability of 52.9%.

In turn, `CC(=O)OCC(=O)[C@@]12N=C(C)O[C@@H]1C[C@H]1[C@@H]3CCC4=CC(=O)C=C[C@]4(C)[C@H]3[C@@H](O)C[C@@]12C` [Deflazacort] yielded an HCT116-GFP viability of 82.5%.

The compound `CC(=O)Nc1ccc(CC(=O)O)cc1` [Actarit] yielded an HCT116-GFP viability of 57.6%.

Regarding `Cc1nc2n(c(=O)c1CCN1CCC(c3noc4cc(F)ccc34)CC1)CCCC2` [Risperidone], the HCT116-GFP viability amounted to 45.5%.

The compound `CNCCC(Oc1ccc(C(F)(F)F)cc1)c1ccccc1` (stereo unspecified) [Fluoxetine hydrochloride] yielded an HCT116-GFP viability of 69.4%.

For `CCN1CC(CCN2CCOCC2)C(c2ccccc2)(c2ccccc2)C1=O` (stereo unspecified) [Doxapram hydrochloride], the HCT116-GFP viability came out at 49.7%.

Compound `O=C(O)c1cc(-c2ccc(F)cc2F)ccc1O` [Diflunisal] registered an HCT116-GFP viability of 38%.

The compound `CCCCNC(=O)NS(=O)(=O)c1ccc(C)cc1` [Tolbutamide] had an HCT116-GFP viability of 40.4%.

Regarding `CC(=O)[C@H]1CC[C@H]2[C@@H]3C[C@H](C)C4=CC(=O)CC[C@]4(C)[C@H]3[C@@H](O)C[C@]12C` [Medrysone], the HCT116-GFP viability was found to be 87.3%.

With `CCOC(=O)OC(C)OC1=C(C(=O)Nc2ccccn2)N(C)S(=O)(=O)c2ccccc21` (stereo unspecified) [Ampiroxicam], the HCT116-GFP viability turned out to be 10.2%.

Compound `CCn1cc(C(=O)O)c(=O)c2cnc(N3CCCC3)nc21` [Piromidic acid] yielded an HCT116-GFP viability of 73.8%.

Turning to `O=S(=O)(O)CCS` [Mesna], the HCT116-GFP viability came out at 33.4%.

In turn, `CC(C)(C)NC[C@H](O)c1ccc(O)c(CO)c1` [Levalbuterol hydrochloride] yielded an HCT116-GFP viability of 52.2%.

`COc1ccc2cc([C@@H](C)C(=O)O)ccc2c1` [(R) -Naproxen sodium salt] yielded an HCT116-GFP viability of 64%.

In the case of `Nc1nc(=O)c2c([nH]1)NC[C@@H](CNc1ccc(C(=O)N[C@@H](CCC(=O)O)C(=O)O)cc1)N2C=O` [Folinic acid calcium salt], the HCT116-GFP viability came to 67.8%.

The compound `CC1(C)NC(=O)N(c2ccc([N+](=O)[O-])c(C(F)(F)F)c2)C1=O` [Nilutamide] registered an HCT116-GFP viability of 70%.

In turn, `COC(=O)[C@@H]1[C@H]2C[C@H]3c4[nH]c5ccccc5c4CCN3C[C@@H]2CC[C@@H]1O` [Yohimbine hydrochloride] gave an HCT116-GFP viability of 61.3%.

On to `CCCCC(CC)CNC(=N)NC(=N)NCCCCCCNC(=N)NC(=N)NCC(CC)CCCC` (stereo unspecified) [Alexidine dihydrochloride], for which the HCT116-GFP viability was 0.0617%.

The compound `CCCCOc1cc(C(=O)NCCN(CC)CC)c2ccccc2n1` [Dibucaine] displayed an HCT116-GFP viability of 60.2%.

In turn, `O=C1CCc2cc(OCCCCc3nnnn3C3CCCCC3)ccc2N1` [Cilostazol] registered an HCT116-GFP viability of 48.6%.

Take `CCS(=O)(=O)CCn1c([N+](=O)[O-])cnc1C` [Tinidazole]: the HCT116-GFP viability was 77.3%.

Compound `CCC1=C(C)CN(C(=O)NCCc2ccc(S(=O)(=O)NC(=O)N[C@H]3CC[C@H](C)CC3)cc2)C1=O` [Glimepiride] registered an HCT116-GFP viability of 94.5%.

Consider `O=C1NCN(c2ccccc2)C12CCN(CCCC(c1ccc(F)cc1)c1ccc(F)cc1)CC2` [Fluspirilen], for which the HCT116-GFP viability came to 44.7%.

With `CC(C)(C)C(=O)OCOC(=O)[C@@H]1N2C(=O)[C@@H](NC(=O)[C@H](N)c3ccccc3)[C@H]2SC1(C)C` [Pivampicillin], the HCT116-GFP viability amounted to 38.1%.

As for `N=C(N)NC(=O)c1nc(Cl)c(N)nc1N` [Amiloride hydrochloride dihydrate], the HCT116-GFP viability was determined as 42%.

`CCCCOC(=O)c1ccc(N)cc1` [Butamben] showed an HCT116-GFP viability of 70.8%.

`CCOc1ccccc1OCC1CNCCO1` (stereo unspecified) [Viloxazine hydrochloride] had an HCT116-GFP viability of 67%.

As to `CC[C@H]1OC(=O)[C@H](C)[C@@H](O[C@H]2C[C@@](C)(OC)[C@@H](O)[C@H](C)O2)[C@H](C)[C@@H](O[C@@H]2O[C@H](C)C[C@H](N(C)C)[C@H]2O)[C@](C)(OC)C[C@@H](C)C(=O)[C@H](C)[C@@H](O)[C@]1(C)O` [Clarithromycin], the HCT116-GFP viability is 33.6%.

For the compound `N[C@@H]1CCCCN(c2c(F)cc3c(=O)c(C(=O)O)cn(C4CC4)c3c2Cl)C1` [Besifloxacin hydrochloride], the HCT116-GFP viability is 49.5%.

`CCCCC1=NC2(CCCC2)C(=O)N1Cc1ccc(-c2ccccc2-c2nnn[nH]2)cc1` [Irbesartan] returned an HCT116-GFP viability of 23.3%.

Consider `CN[C@H](CC(C)C)C(=O)N[C@H]1C(=O)N[C@@H](CC(N)=O)C(=O)N[C@H]2C(=O)N[C@H]3C(=O)N[C@H](C(=O)N[C@H](C(=O)O)c4cc(O)cc(O)c4-c4cc3ccc4O)[C@H](O)c3ccc(c(Cl)c3)Oc3cc2cc(c3O[C@@H]2O[C@H](CO)[C@@H](O)[C@H](O)[C@H]2O[C@H]2C[C@](C)(N)[C@H](O)[C@H](C)O2)Oc2ccc(cc2Cl)[C@H]1O` [Vancomycin hydrochloride], for which the HCT116-GFP viability is 45.7%.
